Each number is a percent effect as filed.
The controls that fix the scale are not given in the record; negative values are as filed.
This is an unselected part of the compounds tested.
Two or more numbers in one place are separate tests of the same structure; such repeats can differ widely.

Mtb glucose medium: 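Whole-cell growth test on Mycobacterium tuberculosis, read after 3 days in glucose-containing 7H9 medium; the read-out is not stated. Concentration: 50 µM. Higher reads as more growth inhibition (inferred: compounds with an IC50 in retests scored well above the rest). About 69,000 compounds were tested under these conditions; 1.1% (about 760) showed 50% or more at least once.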
Mtb cholesterol medium: 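Phenotypic screen: M. tuberculosis growth, cholesterol and DPPC medium, 4 days; the read-out is not stated. Tested at 50 µM. The record gives no direction; compounds that gave an IC50 in retests scored well above the rest, so higher reads as more growth inhibition. Of about 69,000 compounds tested this way, about 370 (0.54%) reached 50% or more in at least one test.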

* CC(CC(=O)N1CCC(c2nnc3n2CCC3)CC1)n1cccc1 (stereo not shown) | Mtb glucose medium: -2.196%; Mtb cholesterol medium: -0.6921% and -9.788%
* CC(=O)N1CCN([C@@H]2CC[C@@H](NC(=O)c3ccc(C)nc3)[C@H]2O)CC1 | Mtb glucose medium: 12.46%; Mtb cholesterol medium: 13.78%
* Cc1ccccc1CSc1nc(N)cc(N2CCC(CC(N)=O)CC2)n1 | Mtb glucose medium: 13.08%; Mtb cholesterol medium: -5.19%
* FC(F)(F)c1nnc2n1CCN(c1nc(C3CC3)ns1)C2 | Mtb glucose medium: -0.5026% and 17.02%; Mtb cholesterol medium: 9.577%
* CCc1nnc2n1CCN(C(=O)Cc1csc(-c3ccco3)n1)C2 | Mtb glucose medium: 5.04%; Mtb cholesterol medium: 2.856%
* CC(=O)Nc1ccc(CNc2cccc(CS(C)(=O)=O)c2)cc1 | Mtb glucose medium: -0.9189%; Mtb cholesterol medium: 2.44%
* Cc1nc(-c2ccc(S(=O)(=O)N3CCOCC3)cc2)co1 | Mtb glucose medium: 30.2%; Mtb cholesterol medium: 25.51%
* OC(COCc1ccc2c(c1)OCO2)CN1CC(n2cccn2)C1 (stereo not shown) | Mtb glucose medium: 3.987%; Mtb cholesterol medium: -15.36%
* Nc1cccnc1N1CCC(c2ccccc2)CC1 | Mtb glucose medium: 2.301% and 21.25%; Mtb cholesterol medium: -11.46%
* Nc1nccc(C2CN(Cc3ccc(-c4ccccc4C(=O)O)o3)C2)n1 | Mtb glucose medium: 25.81%; Mtb cholesterol medium: 9.003% and 17.95%
* CN(Cc1cccc(F)c1)C(=O)CN1CCCCC1Cn1cncn1 (stereo not shown) | Mtb glucose medium: 32.41%; Mtb cholesterol medium: -4.646%
* COc1ccc(C2OC(COc3ccccc3Br)=NN2C(C)=O)cc1 (stereo not shown) | Mtb glucose medium: 2.985%; Mtb cholesterol medium: 1.963%
* CC(=O)N(Cc1ncc(C)o1)C1CCN(Cc2nnc(C3CC3)o2)C1 (stereo not shown) | Mtb glucose medium: -32.39%; Mtb cholesterol medium: -36.43%
* O=S(=O)(N1CCCC1)N1CCCCC1CCc1ccccc1 (stereo not shown) | Mtb glucose medium: 7.134%; Mtb cholesterol medium: -17.83%
* CN(Cc1ccc(Cl)c(F)c1)C(=O)CCc1ccncc1 | Mtb glucose medium: 10.26%; Mtb cholesterol medium: 10.93%
* CC(CCc1ccccc1)NC(=O)Nc1cnn(CC(N)=O)c1 (stereo not shown) | Mtb glucose medium: 18.32%; Mtb cholesterol medium: -0.6736%
* Cc1noc(C2CCN(C(C)c3nc(C4CC4)no3)CC2)n1 (stereo not shown) | Mtb glucose medium: 19.6% and 7.101%; Mtb cholesterol medium: -0.4529%
* Cc1n[nH]c2c1C(c1ccc(Cl)cc1)SCC(=O)N2 (stereo not shown) | Mtb glucose medium: -19.24%
* c1ccc(C2Cn3ccnc3CN2Cc2ncc[nH]2)cc1 (stereo not shown) | Mtb glucose medium: -9.624%; Mtb cholesterol medium: -8.523% and 10.82%
* O=C(O)c1ncccc1OCC(F)(F)F | Mtb glucose medium: -19.09%; Mtb cholesterol medium: -4.519%
* Cc1cc(C)cc(CN2CCN(C(=O)CCc3n[nH]c(C)n3)CC2=O)c1 | Mtb glucose medium: -52%; Mtb cholesterol medium: -18.58%
* CN(CCc1cnn(C)c1)C(=O)CN1C(=O)OC[C@@H]1c1ccccc1 | Mtb glucose medium: 10.31% and 0.151%; Mtb cholesterol medium: 1.331%
* CN(Cc1ccccc1)C(=O)Cn1nc(N2CCOCC2)ccc1=O | Mtb glucose medium: -15.03% and 6.477%; Mtb cholesterol medium: 17.05%
* CCc1nnc2n1CCN(Cc1cc(Cl)c3c(c1)OCCCO3)C2 | Mtb glucose medium: -9.9%; Mtb cholesterol medium: -3.178%
* O=C(c1cccnc1O)N1CCOC(c2ccc(Cl)cc2)C1 (stereo not shown) | Mtb glucose medium: -5.558%; Mtb cholesterol medium: -7.687%
* NCc1n[nH]c(-c2ccc(Br)cc2)n1 | Mtb glucose medium: 67.61% and 1.143%; Mtb cholesterol medium: -9.535%
* CCS(=O)(=O)N1Cc2nccn2CC(Cn2nc(C)nc2C)C1 (stereo not shown) | Mtb glucose medium: 23.57%; Mtb cholesterol medium: 2.081%
* O=C(Cc1ccccn1)NCC1OCCc2cn(CC3CC3)nc21.O=C(O)C(F)(F)F (stereo not shown) | Mtb glucose medium: -48.66% and -11.59%; Mtb cholesterol medium: -11.42% and -8.381%
* Cc1nc(-c2ccncc2)ncc1C(C)NC(=O)C1=NN(C)C(=O)CC1 (stereo not shown) | Mtb glucose medium: -7.736%; Mtb cholesterol medium: 11.76%
* CC(Cn1cncn1)NC(=O)Nc1ccc(F)cc1OCC1CC1 (stereo not shown) | Mtb glucose medium: -7.364%; Mtb cholesterol medium: 4.128% and -2.481%
* Cn1cc(-c2nc(CN3CCc4c(ncn4C4CC4)C3)cs2)cn1 | Mtb glucose medium: 1.068%; Mtb cholesterol medium: 7.458%
* CNC(=O)[C@@H](C1CCCCC1)N1CCC[C@H]1C(=O)NC1CC1 | Mtb glucose medium: 5.333% and -4.545%; Mtb cholesterol medium: -8.672%
* O=C(c1csc(-c2ncccn2)n1)N1CCN(C2CCCC2)CC1 | Mtb glucose medium: 0.1676% and 16.09%; Mtb cholesterol medium: -9.597%
* CN1CCCN(S(=O)(=O)c2cnn(C)c2)c2cc(Cl)ccc21 | Mtb glucose medium: 8.724%; Mtb cholesterol medium: 1.48%
* O=C(C1CCN(c2nc3nc[nH]c(=O)c3s2)CC1)N1CCCCC1 | Mtb glucose medium: 7.442%; Mtb cholesterol medium: -2.208%

Once more, the final 2:

* CN1CCCN(S(=O)(=O)c2cnn(C)c2)c2cc(Cl)ccc21 : Mtb glucose medium: 8.724%; Mtb cholesterol medium: 1.48%
* O=C(C1CCN(c2nc3nc[nH]c(=O)c3s2)CC1)N1CCCCC1 : Mtb glucose medium: 7.442%; Mtb cholesterol medium: -2.208%

Measurements from “University of Dundee, Small-Polar-MMV Screening Library” (2021), ChEMBL document CHEMBL3988442.